Where a name gives a salt, the structure may show the parent alone. Some of the results follow. Hit calls seldom repeat between salt and free forms of one compound.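 In K562 cells expressing nanoluciferase-fused kinases, luminescence was recorded at 4 h intervals between 2 and 18 h, normalized as percent of control with DMSO at 100% and a positive control at 0%. A significant (2 sigma) signal drop marks a time point as decreased. The authors' rule for a hit is not shown and takes in more than the number of time points.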
Columns and labels:
Assay in all cases: kinase-Nluc reporter destabilization hit call (1 = scored as downregulated) (binary); higher = compound decreases kinase abundance
Conditions in all cases: K562; 2-18 h
EGFR = EGFR (UniProt P00533)
EGFR_G719S = EGFR_G719S (UniProt P00533)
EGFR_G719S_T790M = EGFR_G719S_T790M (UniProt P00533)
EGFR_L718V = EGFR_L718V (UniProt P00533)
EGFR_L858R = EGFR_L858R (UniProt P00533)
EGFR_L861Q = EGFR_L861Q (UniProt P00533)
EGFR_T790M = EGFR_T790M (UniProt P00533)
EPHA2 = EPHA2 (UniProt P29317)
ERBB3 = ERBB3 (UniProt P21860)
[1] = target: ERBB4_R711C (clone: ERBB4_mut) (UniProt Q15303)

Amino acid sequences for entries named in this document (tags omitted).
UniProt P29317, whole entry: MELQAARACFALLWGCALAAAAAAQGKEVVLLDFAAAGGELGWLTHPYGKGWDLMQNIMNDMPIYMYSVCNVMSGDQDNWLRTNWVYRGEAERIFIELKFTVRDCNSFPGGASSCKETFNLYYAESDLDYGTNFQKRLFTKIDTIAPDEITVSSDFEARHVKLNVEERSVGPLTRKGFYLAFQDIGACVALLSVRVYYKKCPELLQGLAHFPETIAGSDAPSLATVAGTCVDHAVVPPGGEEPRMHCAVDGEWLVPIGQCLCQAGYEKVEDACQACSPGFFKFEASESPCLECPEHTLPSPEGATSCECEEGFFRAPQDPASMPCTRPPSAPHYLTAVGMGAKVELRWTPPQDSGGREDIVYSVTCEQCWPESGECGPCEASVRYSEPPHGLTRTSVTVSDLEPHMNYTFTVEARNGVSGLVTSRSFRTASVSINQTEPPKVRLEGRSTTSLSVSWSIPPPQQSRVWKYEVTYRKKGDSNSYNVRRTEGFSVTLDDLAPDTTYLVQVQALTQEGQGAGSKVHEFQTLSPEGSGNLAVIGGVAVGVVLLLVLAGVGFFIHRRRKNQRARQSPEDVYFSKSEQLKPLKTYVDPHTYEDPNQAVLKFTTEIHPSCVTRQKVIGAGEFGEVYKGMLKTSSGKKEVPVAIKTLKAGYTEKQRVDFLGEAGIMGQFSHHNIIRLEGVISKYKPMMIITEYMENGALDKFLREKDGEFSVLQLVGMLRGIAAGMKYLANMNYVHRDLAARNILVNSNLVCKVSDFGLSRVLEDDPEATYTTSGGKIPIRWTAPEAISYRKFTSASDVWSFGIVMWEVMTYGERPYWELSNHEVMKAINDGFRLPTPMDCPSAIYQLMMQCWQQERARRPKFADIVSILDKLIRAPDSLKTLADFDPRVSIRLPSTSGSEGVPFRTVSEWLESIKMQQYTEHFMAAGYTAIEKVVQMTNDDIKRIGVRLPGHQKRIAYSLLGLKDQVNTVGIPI
UniProt P21860, whole entry: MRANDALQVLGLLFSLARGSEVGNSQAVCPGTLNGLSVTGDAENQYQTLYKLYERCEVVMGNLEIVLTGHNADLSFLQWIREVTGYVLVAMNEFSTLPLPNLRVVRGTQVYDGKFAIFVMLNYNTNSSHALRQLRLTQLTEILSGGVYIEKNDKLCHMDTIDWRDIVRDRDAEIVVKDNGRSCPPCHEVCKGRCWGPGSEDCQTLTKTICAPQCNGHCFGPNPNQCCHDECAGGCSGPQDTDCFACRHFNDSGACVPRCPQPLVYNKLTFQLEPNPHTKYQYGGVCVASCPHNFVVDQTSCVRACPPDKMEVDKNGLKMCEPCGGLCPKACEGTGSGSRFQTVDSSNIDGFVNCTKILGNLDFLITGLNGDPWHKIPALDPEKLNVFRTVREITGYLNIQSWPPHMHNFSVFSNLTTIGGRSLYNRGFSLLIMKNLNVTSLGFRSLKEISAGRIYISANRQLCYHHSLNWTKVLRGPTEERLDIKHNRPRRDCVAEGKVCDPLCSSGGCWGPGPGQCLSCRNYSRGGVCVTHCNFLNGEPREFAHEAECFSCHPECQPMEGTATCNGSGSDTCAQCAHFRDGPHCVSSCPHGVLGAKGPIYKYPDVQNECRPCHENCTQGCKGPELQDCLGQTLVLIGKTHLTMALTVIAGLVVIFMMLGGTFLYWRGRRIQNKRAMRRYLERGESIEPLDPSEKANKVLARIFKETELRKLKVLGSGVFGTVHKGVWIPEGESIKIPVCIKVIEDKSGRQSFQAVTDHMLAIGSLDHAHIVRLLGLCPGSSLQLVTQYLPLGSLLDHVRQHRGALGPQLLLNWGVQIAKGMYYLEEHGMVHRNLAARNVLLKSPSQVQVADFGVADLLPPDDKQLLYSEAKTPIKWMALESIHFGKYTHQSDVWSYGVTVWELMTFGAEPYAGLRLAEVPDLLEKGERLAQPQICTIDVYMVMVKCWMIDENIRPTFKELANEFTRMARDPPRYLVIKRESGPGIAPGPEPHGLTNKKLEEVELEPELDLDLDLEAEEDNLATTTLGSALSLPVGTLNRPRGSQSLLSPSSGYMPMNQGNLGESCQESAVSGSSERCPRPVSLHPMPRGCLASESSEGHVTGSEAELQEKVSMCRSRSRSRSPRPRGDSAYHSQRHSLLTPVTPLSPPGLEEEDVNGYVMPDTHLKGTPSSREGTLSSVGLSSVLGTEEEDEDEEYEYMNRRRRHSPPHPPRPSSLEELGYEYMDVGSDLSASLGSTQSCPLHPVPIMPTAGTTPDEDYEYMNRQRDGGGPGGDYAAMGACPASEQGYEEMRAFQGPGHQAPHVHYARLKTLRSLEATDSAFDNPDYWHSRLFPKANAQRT
UniProt Q15303, whole entry R711C: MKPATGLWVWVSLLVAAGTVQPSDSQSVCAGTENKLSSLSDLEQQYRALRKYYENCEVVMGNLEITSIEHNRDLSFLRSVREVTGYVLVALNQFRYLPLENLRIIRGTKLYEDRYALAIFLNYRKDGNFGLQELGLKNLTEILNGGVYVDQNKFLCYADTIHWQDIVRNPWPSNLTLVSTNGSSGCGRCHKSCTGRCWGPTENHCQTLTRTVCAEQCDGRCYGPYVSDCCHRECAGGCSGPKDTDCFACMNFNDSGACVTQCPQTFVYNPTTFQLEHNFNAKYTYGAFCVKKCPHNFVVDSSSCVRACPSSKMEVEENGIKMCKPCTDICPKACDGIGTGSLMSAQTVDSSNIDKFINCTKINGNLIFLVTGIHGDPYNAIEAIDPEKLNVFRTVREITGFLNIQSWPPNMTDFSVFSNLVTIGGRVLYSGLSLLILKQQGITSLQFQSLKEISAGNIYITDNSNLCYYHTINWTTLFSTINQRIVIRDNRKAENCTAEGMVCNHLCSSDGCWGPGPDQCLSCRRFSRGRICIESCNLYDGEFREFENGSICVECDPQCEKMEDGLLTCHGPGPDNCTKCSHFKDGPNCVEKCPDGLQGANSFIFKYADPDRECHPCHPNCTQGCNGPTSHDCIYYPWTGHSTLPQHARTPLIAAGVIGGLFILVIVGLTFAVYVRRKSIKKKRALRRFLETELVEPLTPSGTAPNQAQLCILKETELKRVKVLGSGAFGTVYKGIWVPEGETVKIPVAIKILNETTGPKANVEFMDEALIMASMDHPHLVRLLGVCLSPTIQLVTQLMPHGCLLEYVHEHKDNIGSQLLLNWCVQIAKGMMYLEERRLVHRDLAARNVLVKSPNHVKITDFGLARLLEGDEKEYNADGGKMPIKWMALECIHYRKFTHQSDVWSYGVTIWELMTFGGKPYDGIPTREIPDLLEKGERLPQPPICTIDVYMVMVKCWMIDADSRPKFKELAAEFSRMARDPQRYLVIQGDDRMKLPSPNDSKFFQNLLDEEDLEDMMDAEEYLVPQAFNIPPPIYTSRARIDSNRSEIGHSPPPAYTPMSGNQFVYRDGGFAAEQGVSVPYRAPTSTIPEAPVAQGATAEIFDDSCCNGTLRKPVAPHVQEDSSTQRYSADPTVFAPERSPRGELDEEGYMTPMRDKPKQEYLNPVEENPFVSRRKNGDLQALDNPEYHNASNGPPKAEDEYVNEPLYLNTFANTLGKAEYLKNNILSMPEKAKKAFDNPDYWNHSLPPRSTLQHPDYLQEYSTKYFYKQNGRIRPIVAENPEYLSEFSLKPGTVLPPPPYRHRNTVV

Measured: kinase-Nluc reporter destabilization hit call

COc1cc(OC)cc(N(CCNC(C)C)c2ccc3ncc(-c4cnn(C)c4)nc3c2)c1 [Erdafitinib] (2.5 µM)
inactive: EGFR 0 | EGFR_G719S 0 | EGFR_G719S_T790M 0 | EGFR_L718V 0 | EGFR_L858R 0 | EGFR_L861Q 0 | EGFR_T790M 0 | EPHA2 = 0 | ERBB3 = 0 | [1] 0

c1cc(OCCN2CCCCC2)cc(-c2n[nH]c3ccc(-c4nnc[nH]4)cc23)c1 [CC-401 (hydrochloride)] (10 µM)
inactive: EGFR 0 | EGFR_G719S 0 | EGFR_G719S_T790M 0 | EGFR_L718V 0 | EGFR_L858R 0 | EGFR_L861Q 0 | EGFR_T790M 0 | EPHA2 = 0 | ERBB3 = 0 | [1] 0

COc1cc2c(Nc3ccc(NC(=O)c4ccccc4)cc3)ncnc2cc1OCCCN1CCOCC1 (10 µM)
inactive: EGFR 0 | EGFR_G719S 0 | EGFR_G719S_T790M 0 | EGFR_L718V 0 | EGFR_L858R 0 | EGFR_L861Q 0 | EGFR_T790M 0 | EPHA2 = 0 | ERBB3 = 0 | [1] 0

O=C(Nc1ccc(-c2ccnc(Nc3ccc(N4CCOCC4)cc3)n2)cc1)C1CCCN1 (stereo not drawn) (10 µM)
inactive: EGFR 0 | EGFR_G719S 0 | EGFR_G719S_T790M 0 | EGFR_L718V 0 | EGFR_L858R 0 | EGFR_L861Q 0 | EGFR_T790M 0 | EPHA2 = 0 | ERBB3 = 0 | [1] 0

CC(C)(C)S(=O)(=O)c1cc2c(Nc3ccc4scnc4c3)ncnc2cc1OCCO (2.5 µM)
inactive: EGFR 0 | EGFR_G719S 0 | EGFR_G719S_T790M 0 | EGFR_L718V 0 | EGFR_L858R 0 | EGFR_L861Q 0 | EGFR_T790M 0 | EPHA2 = 0 | ERBB3 = 0 | [1] 0

CCOc1cc2ncc(-c3cc(N)nc(F)c3)n2cc1S(=O)(=O)C(C)(C)C (10 µM)
inactive: EGFR 0 | EGFR_G719S 0 | EGFR_G719S_T790M 0 | EGFR_L718V 0 | EGFR_L858R 0 | EGFR_L861Q 0 | EGFR_T790M 0 | EPHA2 = 0 | ERBB3 = 0 | [1] 0

CC(C)(C)n1nc(Cc2cccc3ccccc23)c2c(N)ncnc21 (10 µM)
inactive: EGFR 0 | EGFR_G719S 0 | EGFR_G719S_T790M 0 | EGFR_L718V 0 | EGFR_L858R 0 | EGFR_L861Q 0 | EGFR_T790M 0 | EPHA2 = 0 | ERBB3 = 0 | [1] 0

CC(C)(C#N)c1ccc(N2C(=O)OCc3cnc4ccc(-c5cnc6ccccc6c5)cc4c32)cc1 (2.5 µM)
inactive: EGFR 0 | EGFR_G719S 0 | EGFR_G719S_T790M 0 | EGFR_L718V 0 | EGFR_L858R 0 | EGFR_L861Q 0 | EGFR_T790M 0 | EPHA2 = 0 | ERBB3 = 0 | [1] 0

COc1cc(F)cc([C@@H](CO)NC(=O)[C@@H](C)N2Cc3ccc(-c4nc(NC5CCOCC5)ncc4Cl)cc3C2=O)c1 [ERK1/2 inhibitor 2] (10 µM)
inactive: EGFR 0 | EGFR_G719S 0 | EGFR_G719S_T790M 0 | EGFR_L718V 0 | EGFR_L858R 0 | EGFR_L861Q 0 | EGFR_T790M 0 | EPHA2 = 0 | ERBB3 = 0 | [1] 0

CC(C)(C)c1nc2c3cc[nH]c(=O)c3c3cc(F)ccc3c2[nH]1 [Pyridone 6] (10 µM)
inactive: EGFR 0 | EGFR_G719S 0 | EGFR_G719S_T790M 0 | EGFR_L718V 0 | EGFR_L858R 0 | EGFR_L861Q 0 | EGFR_T790M 0 | EPHA2 = 0 | ERBB3 = 0 | [1] 0

CCCn1cnc2c(NCc3ccccc3)nc(NC(CC)CO)nc21 (stereo not drawn) [Ca2+ channel agonist 1] (2.5 µM)
inactive: EGFR 0 | EGFR_G719S 0 | EGFR_G719S_T790M 0 | EGFR_L718V 0 | EGFR_L858R 0 | EGFR_L861Q 0 | EGFR_T790M 0 | EPHA2 = 0 | ERBB3 = 0 | [1] 0

C[C@H](CN(C)C)Oc1nc(Nc2cc3cccc(Cl)c3cn2)cnc1C#N (10 µM)
inactive: EGFR 0 | EGFR_G719S 0 | EGFR_G719S_T790M 0 | EGFR_L718V 0 | EGFR_L858R 0 | EGFR_L861Q 0 | EGFR_T790M 0 | EPHA2 = 0 | ERBB3 = 0 | [1] 0

Two compounds picked at random from the list so far:
CC(C)(C)c1nc2c3cc[nH]c(=O)c3c3cc(F)ccc3c2[nH]1 [Pyridone 6] (10 µM)
inactive: EGFR 0 | EGFR_G719S 0 | EGFR_G719S_T790M 0 | EGFR_L718V 0 | EGFR_L858R 0 | EGFR_L861Q 0 | EGFR_T790M 0 | EPHA2 = 0 | ERBB3 = 0 | [1] 0

CCCn1cnc2c(NCc3ccccc3)nc(NC(CC)CO)nc21 (stereo not drawn) [Ca2+ channel agonist 1] (2.5 µM)
inactive: EGFR 0 | EGFR_G719S 0 | EGFR_G719S_T790M 0 | EGFR_L718V 0 | EGFR_L858R 0 | EGFR_L861Q 0 | EGFR_T790M 0 | EPHA2 = 0 | ERBB3 = 0 | [1] 0

Carrying on.

NC(=O)c1ccc(-c2nc(-c3ccccn3)c(-c3ccc4c(c3)OCO4)[nH]2)cc1 (10 µM)
inactive: EGFR 0 | EGFR_G719S 0 | EGFR_G719S_T790M 0 | EGFR_L718V 0 | EGFR_L858R 0 | EGFR_L861Q 0 | EGFR_T790M 0 | EPHA2 = 0 | ERBB3 = 0 | [1] 0

Brc1c(Br)c(Br)c2n[nH]nc2c1Br (10 µM)
inactive: EGFR 0 | EGFR_G719S 0 | EGFR_G719S_T790M 0 | EGFR_L718V 0 | EGFR_L858R 0 | EGFR_L861Q 0 | EGFR_T790M 0 | EPHA2 = 0 | ERBB3 = 0 | [1] 0

O=c1cc(-c2ccccc2)oc2c(O)c(O)ccc12 [7,8-Dihydroxyflavone] (10 µM)
inactive: EGFR 0 | EGFR_G719S 0 | EGFR_G719S_T790M 0 | EGFR_L718V 0 | EGFR_L858R 0 | EGFR_L861Q 0 | EGFR_T790M 0 | EPHA2 = 0 | ERBB3 = 0 | [1] 0

COc1c(Cl)cc2c([nH]c3cnccc32)c1NC(=O)c1cccnc1C (10 µM)
inactive: EGFR 0 | EGFR_G719S 0 | EGFR_G719S_T790M 0 | EGFR_L718V 0 | EGFR_L858R 0 | EGFR_L861Q 0 | EGFR_T790M 0 | EPHA2 = 0 | ERBB3 = 0 | [1] 0

CCCCNc1ncc(-c2ccc(CN3CCOCC3)cn2)c(NC2CCC(O)CC2)n1 (stereo not drawn) (10 µM)
inactive: EGFR 0 | EGFR_G719S 0 | EGFR_G719S_T790M 0 | EGFR_L718V 0 | EGFR_L858R 0 | EGFR_L861Q 0 | EGFR_T790M 0 | EPHA2 = 0 | ERBB3 = 0 | [1] 0

COc1ccc(NC(=O)N2CCN(c3nc(N)nc4c3cnn4C)[C@@H](C)C2)c(C)c1 (10 µM)
inactive: EGFR 0 | EGFR_G719S 0 | EGFR_G719S_T790M 0 | EGFR_L718V 0 | EGFR_L858R 0 | EGFR_L861Q 0 | EGFR_T790M 0 | EPHA2 = 0 | ERBB3 = 0 | [1] 0

CC(C)c1ccc2oc3nc(N)c(C(=O)O)cc3c(=O)c2c1 [Amlexanox] (10 µM)
inactive: EGFR 0 | EGFR_G719S 0 | EGFR_G719S_T790M 0 | EGFR_L718V 0 | EGFR_L858R 0 | EGFR_L861Q 0 | EGFR_T790M 0 | EPHA2 = 0 | ERBB3 = 0 | [1] 0

CCN1C(=O)N(c2c(F)c(OC)cc(OC)c2F)Cc2cnc3[nH]c(CN4CCOCC4)cc3c21 [Pemigatinib] (10 µM)
inactive: EGFR 0 | EGFR_G719S 0 | EGFR_G719S_T790M 0 | EGFR_L718V 0 | EGFR_L858R 0 | EGFR_L861Q 0 | EGFR_T790M 0 | EPHA2 = 0 | ERBB3 = 0 | [1] 0

O=C1Nc2ccccc2/C1=C/c1ccc(F)cc1 (10 µM)
inactive: EGFR 0 | EGFR_G719S 0 | EGFR_G719S_T790M 0 | EGFR_L718V 0 | EGFR_L858R 0 | EGFR_L861Q 0 | EGFR_T790M 0 | EPHA2 = 0 | ERBB3 = 0 | [1] 0

Cc1ccc2c(Nc3ccc(Cl)cc3)nccc2c1Nc1ncccc1-c1ncnc2nc[nH]c12 [Raf inhibitor 1] (2.5 µM)
inactive: EGFR 0 | EGFR_G719S 0 | EGFR_G719S_T790M 0 | EGFR_L718V 0 | EGFR_L858R 0 | EGFR_L861Q 0 | EGFR_T790M 0 | EPHA2 = 0 | ERBB3 = 0 | [1] 0

Nc1nc(N)c(N=O)c(OCC2CCCCC2)n1 (10 µM)
inactive: EGFR 0 | EGFR_G719S 0 | EGFR_G719S_T790M 0 | EGFR_L718V 0 | EGFR_L858R 0 | EGFR_L861Q 0 | EGFR_T790M 0 | EPHA2 = 0 | ERBB3 = 0 | [1] 0

COc1cc2ncnc(Nc3cccc(Cl)c3F)c2cc1OC(=O)N1CCN(C)C[C@H]1C [Zorifertinib] (10 µM)
inactive: EGFR 0 | EGFR_G719S 0 | EGFR_G719S_T790M 0 | EGFR_L718V 0 | EGFR_L858R 0 | EGFR_L861Q 0 | EGFR_T790M 0 | EPHA2 = 0 | ERBB3 = 0 | [1] 0

O=C(O)CCNC(=O)c1ccc(/N=N/c2ccc(O)c(C(=O)O)c2)cc1 [Balsalazide] (10 µM)
inactive: EGFR 0 | EGFR_G719S 0 | EGFR_G719S_T790M 0 | EGFR_L718V 0 | EGFR_L858R 0 | EGFR_L861Q 0 | EPHA2 = 0 | ERBB3 = 0 | [1] 0

CNC(=O)c1cccc(-c2ccc3c(N4CCOC[C@@H]4C)nc(N4CCOC[C@@H]4C)nc3n2)c1 [Vistusertib] (2.5 µM)
inactive: EGFR 0 | EGFR_G719S 0 | EGFR_G719S_T790M 0 | EGFR_L718V 0 | EGFR_L858R 0 | EGFR_L861Q 0 | EGFR_T790M 0 | EPHA2 = 0 | ERBB3 = 0 | [1] 0

CCC(=O)N1CCN(c2ccc(-n3c(=O)ccc4cnc5ccc(-c6cnc7ccccc7c6)cc5c43)cc2C(F)(F)F)CC1 [Torin 1] (2 µM)
inactive: EGFR 0 | EGFR_G719S 0 | EGFR_G719S_T790M 0 | EGFR_L718V 0 | EGFR_L858R 0 | EGFR_L861Q 0 | EPHA2 = 0 | ERBB3 = 0 | [1] 0

COC(=O)c1ccc2c(C(=Nc3ccc(N(C)C(=O)CN4CCN(C)CC4)cc3)c3ccccc3)c(O)[nH]c2c1 [Nintedanib] (2.5 µM)
inactive: EGFR 0 | EGFR_G719S 0 | EGFR_G719S_T790M 0 | EGFR_L718V 0 | EGFR_L858R 0 | EGFR_L861Q 0 | EGFR_T790M 0 | EPHA2 = 0 | ERBB3 = 0 | [1] 0

CN(C)C[C@@H]1CCn2cc(c3ccccc32)C2=C(C(=O)NC2=O)c2cn(c3ccccc23)CCO1 [Ruboxistaurin (hydrochloride)] (10 µM)
inactive: EGFR 0 | EGFR_G719S 0 | EGFR_G719S_T790M 0 | EGFR_L718V 0 | EGFR_L858R 0 | EGFR_L861Q 0 | EGFR_T790M 0 | EPHA2 = 0 | ERBB3 = 0 | [1] 0

Reference: the supplement of paper PMC12823440, “Inhibitors supercharge kinase turnover through native proteolytic circuits” (Nature, 2025)
